Experimental data published in patent US5834428A (1149336 Ontario Inc., priority 1996, dated 1998).
Some peptides are written in HELM: one residue between dots, names in brackets for other building blocks, links after the first $.

Assay: peptide made by a vendor (peptide synthesis; chloromethyl (Merrifield) resin for C-terminal acids; 4-methylbenzhydrylamine (MBHA) resin for C-terminal amides; 0.5 me; DCC/HOBt)
Settings: whole synthesis, analytical RP-HPLC, Vydac C18, 215 nm, two solvent systems, scale of the general procedure 3 mmole, acetate salts prepared from TFA salts

PEPTIDE1{H.A.D.G.S.F.S.D.E.M.N.T.I.L.D.N.L.A.T.R.D.F.I.N.W.L.I.Q.T.K.I.T.D}$$$$V2.0
final HPLC purity: 95%
